The full ranking holds about 33,000 sequences; the median of “E-score (-0.5 to 0.5)” is about -8e-05, and the highest 2% start at about 0.23. The list shows a part of the results.
These sequences were tested against T1, Nrg2 (UniProt P38082) (assay: PBM E-score (8-mer binding enrichment) (E-score (-0.5 to 0.5)); higher = stronger / more preferred TF binding). Settings: protein concentration: 100 nM; construct: GST-full length.
T1 sequence: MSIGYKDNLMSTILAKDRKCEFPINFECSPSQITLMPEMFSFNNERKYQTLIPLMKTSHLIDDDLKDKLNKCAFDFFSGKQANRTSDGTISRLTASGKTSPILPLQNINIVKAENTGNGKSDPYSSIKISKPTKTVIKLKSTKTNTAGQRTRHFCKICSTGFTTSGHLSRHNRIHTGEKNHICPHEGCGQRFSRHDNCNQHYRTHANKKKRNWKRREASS
How it was run: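 E-scores (a modified Wilcoxon-Mann-Whitney statistic) were assigned by the Universal PBM Analysis Suite to every ungapped eight-base word pooled with its reverse complement. The input came from universal all-10-mer Agilent arrays made double-stranded by primer extension and probed with GST-tagged yeast transcription factors at about 100-200 nM. Fluorescent anti-GST detected bound protein, and masliner normalised the scans.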

Sequence	PBM E-score
TAAGACGA	-0.008
ATGAGAAA	0.0922
ACGGTGCC	-0.128
ACAAAGTC	-0.0258
CAGATATC	0.133
AGTGTCAA	-0.0281
ACTAGACT	-0.224
CCCGCACG	-0.156
ACCTAGGT	0.0136
AGTGAAAA	0.00081
CCGCTGAC	-0.154
GTATCGCA	-0.0868
GAATCACC	0.0858
CGGGACCG	-0.0394
GCGGGCTA	-0.156
ACGAGCAT	-0.14
CCGTACTA	0.192
GATTACTA	0.0272
AAACCCCG	0.148
CACTAGCG	-0.0585
CCAGGGTA	0.304
CAAGCCTA	-0.00885
CTTTGGAC	0.0441
ATTCTCGG	0.0274
ACCAACGA	-0.0218

Sequence	PBM E-score
GTCACCAC	-0.185
GCACAAGA	0.105
TCCCGAGA	-0.0695
CAAGGTCC	-0.0334
AGCTTTCG	-0.106
ACGTTACG	-0.127
TATCCCAA	-0.005
AGACTTAG	-0.237
GTAACCCA	0.229
ACGACACG	0.0863
AGGAACAA	0.0122
ACTAAGAA	0.221
AGTTCGGC	-0.0543
TATGAGGA	-0.16
TACATTGA	0.0248
CCTAGTTA	0.0772
CATCGTAG	-0.227
CCCACTCA	-0.1
GGACCAAA	0.0688
GGCCATAC	0.0138
ACGAGTCC	-0.00759
ACGCTTAC	0.0218
ATTGTAGC	-0.0306
CATATCAC	0.0206
ATCTATCC	0.0522

Sequence	PBM E-score
AGGTATCA	0.0486
CCGAACAC	-0.0339
ATTGCTAC	-0.0978
AAGAGAAT	0.231
TCGTAAGA	-0.0328
GTGTAACA	0.0279
CGGGAACC	-0.101
AAGTGTTC	0.0551
AAGTATGA	0.0335
GTAGTCAA	-0.0818
GGATAGCC	-0.177
GCCCCTAC	-0.0126
AGTTAAAA	0.167
ACAAGGTA	0.0234
AATAGCGC	0.132
CTGGCCCC	0.163
CTACTGGC	-0.0271
AACACTCG	0.0879
GGTCCACA	-0.00829
AAAGGACC	-0.0133
CTCTGAGC	-0.16
ATGACCAA	0.0462
CTCCAGCA	-0.0907
CTCGTCCA	-0.0137
AAGATCGA	0.0393

Sequence	PBM E-score
GTCATGAA	0.118
AATGTGAT	0.0439
ACGGTCGC	-0.131
GTCGACCA	-0.114
GATTCACC	-0.045
AGCGCACC	0.00999
AGGCTACT	-0.0686
AGGGTGTA	0.116
AAATGAGG	-0.0974
GCCTCGCC	-0.218
ATGTCGAC	0.254
AAACTCCG	-0.0654
GTATATAC	0.0119
ACCTTTAA	-0.13
TCGACGCA	0.0386
CTGTCATC	-0.0897
CATTAAGC	0.108
CCTTCTCA	0.097
CTTTGTGA	-0.0138
AAAGAGTA	0.0331
ACCCGGCC	-0.357
CGGAAGTC	-0.0537
AGCTTTGA	0.0144
CCTGAAAG	0.155
GATTGGTA	0.143

Some values from above.
PBM E-score with ATGACCAA is entered as 0.0462
PBM E-score with GTAACCCA is entered as 0.229
PBM E-score with ACAAGGTA is entered as 0.0234

(listing goes on)

Sequence	PBM E-score
AGGCAACG	0.0301
GACCCCTC	-0.0409
GACCACAC	-0.0745
GCGCGCGC	0.415
GGCCCTAC	-0.109
CAGCCGGC	0.0375
CAGGGTAC	0.235
AACCCGAT	0.122
AGAAGGCT	-0.296
GGGAGTGA	-0.0907
CTAACCAA	0.134
TACGGTAA	0.0477
CAGCGCTA	0.00256
CCTGACCC	0.0998
CCTCGAAG	0.0341
AGGTTATA	-0.0834
ATAAAGTC	-0.0479
GGCTTCAA	-0.0397
CCGTAGTA	-0.0387
GCTGAACA	0.00722
ATACTGAT	0.225
ACAAAATA	0.112
CCGAACAG	-0.0173
CGTGTAGC	-0.12
GATGAATC	0.171

Sequence	PBM E-score
ACTCTAAC	0.0412
CTATACTC	0.0213
AGCCGCCC	-0.0653
CTCGCGGC	-0.112
AGTCGCAC	-0.16
AATTCTTG	0.0958
CGATTCCC	0.18
AGTGAGTG	-0.0728
ACTCTCCA	-0.0535
ATCCCTTC	-0.0663
AACGACGC	-0.17
CAACCCGC	0.0597
CGCCCAAA	0.0998
CGCTGAAC	-0.111
GCCAGTGA	-0.183
ACATCACC	-0.072
CCATAAAA	0.0824
ACAATATG	0.135
CACTTACG	-0.0647
AACGCCTG	-0.0585
AATATATT	0.341
CTTGAACC	0.0101
GACAGCCA	0.0612
TCACAGAA	-0.0475
AATTTGGG	0.0597

Sequence	PBM E-score
ACTGCGAG	-0.0584
AGTGCCTA	-0.234
AACTCGAC	0.138
AGAGCGCA	-0.094
ATCCCAAT	0.00302
AGTCAATC	0.118
AAGAGGGT	-0.236
ACAACTGT	0.00453
CTAGCATC	0.0495
AAGAGCTC	-0.0862
CGGGACGC	-0.246
ACCCGATC	-0.0721
CACCTAGG	-0.082
AAGTGCAG	-0.246
CTGAGCCC	0.0871
ATCTCCTA	-0.0802
CTCTCTAA	-0.177
CAATAGAA	-0.0608
AGGTCTCC	-0.238
ACTACACC	-0.0114
ACTACGGG	0.00019
GCCTGAGC	-0.213
ACGTGCAC	0.0339
ATGGGGGG	-0.357
GTGGCAAA	-0.0403

Sequence	PBM E-score
GAGCATTA	-0.0114
AGGAACGC	0.0175
CTTTCGGA	-0.0315
AACTTTAG	-0.011
CGACATGC	0.0795
AGTTACGA	0.143
AGGCGGAC	-0.108
AGCCCTCC	-0.175
CGAGGCGA	0.164
AATACACG	-0.0346
GCTGAAGC	-0.0603
AAGCTCAA	-0.093
CTCTCTTC	-0.132
GATCTTAC	-0.0314
AGCGAGCG	0.103
GATATTAA	0.147
GACACGTC	-0.16
CTTCAAGA	-0.113
AGGCTTCG	-0.19
GATCTTAA	-0.0628
ACGCTCCG	-0.12
ACGAGATC	-0.0548
GCACGCGC	0.0126
GTTAAGGA	-0.0446
AGTAATTG	0.052

Some of the entries above in a different format:
Sequence | PBM E-score
CTAACCAA | 0.134
TACGGTAA | 0.0477

Continued:

Sequence	PBM E-score
ACTGGGCT	-0.238
AGACTGAC	-0.1
CTTGCCTA	-0.135
ATGTATAG	0.0189
CGCGTCCC	0.0884
ATTGCCTA	-0.106
AGTTCGTC	0.1
CTGCGTCA	-0.0532
CACCGGCA	-0.0523
GGCCAAAA	0.128
AGATGCGG	0.0447
CCAACCTA	-0.118
CACCATAG	-0.184
CATAACAC	-0.0348
ACGACACC	0.101
CATCTCAG	0.23
CATGCAAA	0.246
CAGCTGCG	-0.0101
GTACTTCA	0.226

Reference: the supplement of paper PMC3334620
